Source: the supplement of paper PMC10849652
Some of the results follow.

Protein sequences, listed by entry. Tags and fused reporters are not part of them. Lines headed by an entry give the natural chain unless they say otherwise; changes in a name come on top.
UniProt P0C0S5, whole entry, looked up: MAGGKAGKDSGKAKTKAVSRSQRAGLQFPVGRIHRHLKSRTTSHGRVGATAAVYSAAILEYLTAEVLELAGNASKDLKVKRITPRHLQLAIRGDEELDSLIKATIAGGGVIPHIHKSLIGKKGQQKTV
UniProt P78417: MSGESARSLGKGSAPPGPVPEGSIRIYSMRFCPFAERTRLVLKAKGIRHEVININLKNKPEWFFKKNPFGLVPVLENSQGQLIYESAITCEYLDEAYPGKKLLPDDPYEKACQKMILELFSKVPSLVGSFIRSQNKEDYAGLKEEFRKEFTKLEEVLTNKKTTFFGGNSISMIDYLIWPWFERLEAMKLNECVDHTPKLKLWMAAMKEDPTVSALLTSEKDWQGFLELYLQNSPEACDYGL
UniProt Q03013: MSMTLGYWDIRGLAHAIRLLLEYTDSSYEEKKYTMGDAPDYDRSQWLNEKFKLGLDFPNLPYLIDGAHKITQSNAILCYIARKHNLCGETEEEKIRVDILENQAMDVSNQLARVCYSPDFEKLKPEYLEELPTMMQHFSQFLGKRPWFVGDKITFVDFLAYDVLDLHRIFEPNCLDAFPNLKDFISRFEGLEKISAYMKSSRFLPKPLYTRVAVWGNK
UniProt P08236: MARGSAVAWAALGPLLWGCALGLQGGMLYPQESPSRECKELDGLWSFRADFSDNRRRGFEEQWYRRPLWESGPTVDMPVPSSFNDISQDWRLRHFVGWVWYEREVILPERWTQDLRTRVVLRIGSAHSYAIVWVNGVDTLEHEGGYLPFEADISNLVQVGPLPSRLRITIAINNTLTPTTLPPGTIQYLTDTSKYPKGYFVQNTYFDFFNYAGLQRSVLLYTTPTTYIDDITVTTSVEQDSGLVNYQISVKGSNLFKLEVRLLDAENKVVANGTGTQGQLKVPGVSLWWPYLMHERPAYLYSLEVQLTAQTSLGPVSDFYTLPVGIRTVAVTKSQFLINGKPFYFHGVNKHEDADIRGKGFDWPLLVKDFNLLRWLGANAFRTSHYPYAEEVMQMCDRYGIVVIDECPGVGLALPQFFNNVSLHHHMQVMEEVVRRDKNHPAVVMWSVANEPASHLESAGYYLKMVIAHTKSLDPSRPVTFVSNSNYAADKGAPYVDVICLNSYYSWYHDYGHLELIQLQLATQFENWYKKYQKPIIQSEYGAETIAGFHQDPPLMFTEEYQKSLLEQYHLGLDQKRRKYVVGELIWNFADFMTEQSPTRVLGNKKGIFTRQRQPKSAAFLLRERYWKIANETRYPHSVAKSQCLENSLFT
UniProt Q9ULT8: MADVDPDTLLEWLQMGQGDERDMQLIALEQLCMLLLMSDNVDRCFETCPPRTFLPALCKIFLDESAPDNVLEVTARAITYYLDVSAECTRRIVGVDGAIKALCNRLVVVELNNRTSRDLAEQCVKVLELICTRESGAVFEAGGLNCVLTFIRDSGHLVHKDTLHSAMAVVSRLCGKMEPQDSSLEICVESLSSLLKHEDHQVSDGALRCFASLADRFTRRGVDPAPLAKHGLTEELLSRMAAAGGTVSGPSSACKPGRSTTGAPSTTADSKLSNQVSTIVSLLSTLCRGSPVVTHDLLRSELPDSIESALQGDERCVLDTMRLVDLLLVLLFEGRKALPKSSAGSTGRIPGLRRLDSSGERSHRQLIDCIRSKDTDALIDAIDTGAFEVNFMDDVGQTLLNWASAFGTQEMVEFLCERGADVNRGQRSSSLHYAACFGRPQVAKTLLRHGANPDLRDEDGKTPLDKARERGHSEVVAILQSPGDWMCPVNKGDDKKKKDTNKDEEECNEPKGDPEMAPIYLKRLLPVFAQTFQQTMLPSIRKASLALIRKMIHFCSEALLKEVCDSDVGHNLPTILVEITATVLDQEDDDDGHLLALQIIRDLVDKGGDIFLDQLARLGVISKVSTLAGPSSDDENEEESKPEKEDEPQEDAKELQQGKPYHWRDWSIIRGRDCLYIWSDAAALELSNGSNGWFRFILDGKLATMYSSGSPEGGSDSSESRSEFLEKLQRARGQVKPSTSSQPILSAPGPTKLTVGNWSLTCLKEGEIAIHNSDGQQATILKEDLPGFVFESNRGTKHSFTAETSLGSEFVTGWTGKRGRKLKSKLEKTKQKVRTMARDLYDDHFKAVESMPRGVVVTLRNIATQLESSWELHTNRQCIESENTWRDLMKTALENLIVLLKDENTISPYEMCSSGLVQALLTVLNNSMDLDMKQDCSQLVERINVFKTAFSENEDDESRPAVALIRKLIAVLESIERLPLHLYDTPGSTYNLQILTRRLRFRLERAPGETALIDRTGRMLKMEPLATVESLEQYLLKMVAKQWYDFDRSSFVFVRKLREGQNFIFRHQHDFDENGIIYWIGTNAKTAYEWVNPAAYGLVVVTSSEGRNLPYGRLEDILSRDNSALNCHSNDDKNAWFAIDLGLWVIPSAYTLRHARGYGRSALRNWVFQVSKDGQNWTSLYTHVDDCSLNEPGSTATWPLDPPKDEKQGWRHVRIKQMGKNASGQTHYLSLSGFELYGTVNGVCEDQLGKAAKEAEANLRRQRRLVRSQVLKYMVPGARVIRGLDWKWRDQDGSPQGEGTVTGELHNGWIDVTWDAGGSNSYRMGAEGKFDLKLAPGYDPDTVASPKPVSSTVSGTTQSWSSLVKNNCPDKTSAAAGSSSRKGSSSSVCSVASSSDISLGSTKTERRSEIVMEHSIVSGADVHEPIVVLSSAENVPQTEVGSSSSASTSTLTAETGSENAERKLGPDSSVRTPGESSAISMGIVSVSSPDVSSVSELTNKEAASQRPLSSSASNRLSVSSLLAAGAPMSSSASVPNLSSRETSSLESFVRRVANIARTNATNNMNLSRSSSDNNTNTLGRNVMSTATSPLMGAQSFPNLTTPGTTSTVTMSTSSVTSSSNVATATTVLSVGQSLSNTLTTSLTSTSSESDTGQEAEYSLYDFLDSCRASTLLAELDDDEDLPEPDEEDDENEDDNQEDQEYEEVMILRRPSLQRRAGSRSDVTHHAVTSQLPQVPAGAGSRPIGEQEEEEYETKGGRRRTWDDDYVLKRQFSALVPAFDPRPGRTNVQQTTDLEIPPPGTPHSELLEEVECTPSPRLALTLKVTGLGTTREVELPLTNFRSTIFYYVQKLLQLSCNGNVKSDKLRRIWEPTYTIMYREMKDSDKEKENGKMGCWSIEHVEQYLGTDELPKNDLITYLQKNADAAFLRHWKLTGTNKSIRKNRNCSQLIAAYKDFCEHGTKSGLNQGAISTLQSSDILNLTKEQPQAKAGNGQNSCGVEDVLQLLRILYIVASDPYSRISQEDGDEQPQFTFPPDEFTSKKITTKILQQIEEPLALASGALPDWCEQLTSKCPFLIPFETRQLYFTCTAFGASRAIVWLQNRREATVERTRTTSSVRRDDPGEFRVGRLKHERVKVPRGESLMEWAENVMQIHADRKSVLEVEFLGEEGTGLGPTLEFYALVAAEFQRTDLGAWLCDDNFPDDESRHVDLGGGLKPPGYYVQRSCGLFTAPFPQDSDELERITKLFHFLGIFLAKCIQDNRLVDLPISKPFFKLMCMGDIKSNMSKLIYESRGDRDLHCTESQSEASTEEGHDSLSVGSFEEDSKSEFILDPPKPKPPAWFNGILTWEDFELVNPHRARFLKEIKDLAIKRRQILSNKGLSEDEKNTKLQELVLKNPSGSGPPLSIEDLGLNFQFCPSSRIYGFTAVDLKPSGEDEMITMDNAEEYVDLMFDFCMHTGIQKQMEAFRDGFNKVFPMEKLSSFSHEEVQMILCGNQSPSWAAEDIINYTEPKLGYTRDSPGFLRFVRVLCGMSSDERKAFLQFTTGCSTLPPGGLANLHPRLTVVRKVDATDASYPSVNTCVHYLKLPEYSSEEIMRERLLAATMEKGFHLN
UniProt Q13889: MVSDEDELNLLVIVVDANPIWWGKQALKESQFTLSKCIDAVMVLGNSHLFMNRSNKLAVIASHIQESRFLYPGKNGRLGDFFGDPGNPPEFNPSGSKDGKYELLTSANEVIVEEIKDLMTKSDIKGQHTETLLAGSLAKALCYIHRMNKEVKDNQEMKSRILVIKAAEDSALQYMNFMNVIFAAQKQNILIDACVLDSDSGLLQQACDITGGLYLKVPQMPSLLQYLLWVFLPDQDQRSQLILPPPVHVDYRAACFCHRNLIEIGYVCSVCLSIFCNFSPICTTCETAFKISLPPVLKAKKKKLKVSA
UniProt Q9Y5Q9: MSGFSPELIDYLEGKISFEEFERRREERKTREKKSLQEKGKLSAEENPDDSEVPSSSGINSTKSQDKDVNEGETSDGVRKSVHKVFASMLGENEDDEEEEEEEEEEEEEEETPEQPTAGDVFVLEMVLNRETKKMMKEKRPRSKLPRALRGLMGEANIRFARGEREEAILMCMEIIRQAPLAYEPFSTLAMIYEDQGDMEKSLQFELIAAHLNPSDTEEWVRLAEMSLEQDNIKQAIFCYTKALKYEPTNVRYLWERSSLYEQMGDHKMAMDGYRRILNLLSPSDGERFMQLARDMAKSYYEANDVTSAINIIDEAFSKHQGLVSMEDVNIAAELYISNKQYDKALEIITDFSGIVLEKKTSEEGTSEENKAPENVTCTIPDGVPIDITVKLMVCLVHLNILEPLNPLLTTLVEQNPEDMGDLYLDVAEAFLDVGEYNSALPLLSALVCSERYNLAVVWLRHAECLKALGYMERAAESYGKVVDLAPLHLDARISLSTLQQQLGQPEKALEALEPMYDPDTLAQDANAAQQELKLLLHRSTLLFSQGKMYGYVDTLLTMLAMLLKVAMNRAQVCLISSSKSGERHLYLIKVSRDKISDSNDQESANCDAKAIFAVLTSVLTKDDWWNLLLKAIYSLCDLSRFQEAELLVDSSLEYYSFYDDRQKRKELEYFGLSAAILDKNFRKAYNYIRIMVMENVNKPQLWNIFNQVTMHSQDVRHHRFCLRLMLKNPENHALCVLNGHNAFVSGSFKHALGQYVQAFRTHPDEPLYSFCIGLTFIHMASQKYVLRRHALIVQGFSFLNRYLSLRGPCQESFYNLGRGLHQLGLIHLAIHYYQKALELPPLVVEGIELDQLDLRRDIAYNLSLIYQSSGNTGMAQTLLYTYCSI
UniProt Q9UKN8: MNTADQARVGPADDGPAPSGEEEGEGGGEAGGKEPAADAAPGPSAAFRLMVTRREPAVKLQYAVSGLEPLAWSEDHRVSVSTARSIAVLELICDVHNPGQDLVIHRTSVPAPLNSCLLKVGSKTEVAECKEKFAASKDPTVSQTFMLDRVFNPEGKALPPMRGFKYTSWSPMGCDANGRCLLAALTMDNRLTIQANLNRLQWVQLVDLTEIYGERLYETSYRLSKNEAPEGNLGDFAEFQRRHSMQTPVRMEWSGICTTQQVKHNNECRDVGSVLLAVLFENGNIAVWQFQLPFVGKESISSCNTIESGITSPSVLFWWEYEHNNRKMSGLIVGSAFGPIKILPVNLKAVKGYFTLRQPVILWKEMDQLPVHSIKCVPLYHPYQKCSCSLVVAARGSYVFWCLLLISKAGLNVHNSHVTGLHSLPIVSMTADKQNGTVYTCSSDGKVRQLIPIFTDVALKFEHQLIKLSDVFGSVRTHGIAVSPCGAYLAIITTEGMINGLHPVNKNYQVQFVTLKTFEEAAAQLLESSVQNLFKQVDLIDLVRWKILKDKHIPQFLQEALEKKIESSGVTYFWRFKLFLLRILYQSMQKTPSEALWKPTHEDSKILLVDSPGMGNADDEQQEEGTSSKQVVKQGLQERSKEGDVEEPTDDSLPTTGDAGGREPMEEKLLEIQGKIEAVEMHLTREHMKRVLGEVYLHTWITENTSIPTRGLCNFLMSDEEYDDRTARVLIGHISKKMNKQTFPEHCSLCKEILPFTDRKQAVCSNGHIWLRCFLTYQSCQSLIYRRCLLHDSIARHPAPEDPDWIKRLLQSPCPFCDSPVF
UniProt Q7Z4V5: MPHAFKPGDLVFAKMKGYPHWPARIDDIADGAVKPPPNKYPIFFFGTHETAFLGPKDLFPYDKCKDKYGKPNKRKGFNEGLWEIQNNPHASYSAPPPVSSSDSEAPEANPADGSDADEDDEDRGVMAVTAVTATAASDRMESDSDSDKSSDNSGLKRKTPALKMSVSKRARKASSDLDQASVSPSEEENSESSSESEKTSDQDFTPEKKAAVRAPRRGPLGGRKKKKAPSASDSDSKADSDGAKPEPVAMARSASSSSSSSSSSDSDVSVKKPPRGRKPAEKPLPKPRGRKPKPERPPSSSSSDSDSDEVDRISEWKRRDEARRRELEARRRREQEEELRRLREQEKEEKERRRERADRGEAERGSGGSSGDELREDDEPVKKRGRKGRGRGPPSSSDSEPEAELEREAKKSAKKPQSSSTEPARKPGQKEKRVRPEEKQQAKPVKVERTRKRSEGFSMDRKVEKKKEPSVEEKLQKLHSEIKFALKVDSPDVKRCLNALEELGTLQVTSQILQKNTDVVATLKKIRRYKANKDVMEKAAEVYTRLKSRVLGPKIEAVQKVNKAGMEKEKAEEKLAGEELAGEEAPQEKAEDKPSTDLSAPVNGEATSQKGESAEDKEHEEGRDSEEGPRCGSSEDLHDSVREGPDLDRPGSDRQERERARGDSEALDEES

Experiments:
Assay in all cases: log2 fold change, soluble protein after heating vs DMSO (PISA); higher = thermal stabilisation; K562 cells, 10 uM, 30 min; active = over 0.2 and 3.5 SD of the protein, either way, in both replicates (recomputed)
[1] = compound: CC[C@@H]1C(=O)N(C)c2cnc(Nc3ccc(C(=O)NC4CCN(C)CC4)cc3OC)nc2N1C1CCCC1
Outline: (§1)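 Soluble protein was defined as the supernatant after 21,000xg for 90 min. It came from K562 cells at 2×10^6 cells/mL given 10 μM compound for 30 min, heated in aliquots for 3 min across 48°C-58°C, pooled, and extracted in PBS with 0.5% NP-40 at 4°C, and was quantified by TMTpro 16plex LC-MS/MS with equalised channel sums. Thermal stability against control samples, from duplicates, is reported as log2 fold change.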

volasertib = compound: CC[C@@H]1C(=O)N(C)c2cnc(Nc3ccc(C(=O)N[C@H]4CC[C@H](N5CCN(CC6CC6)CC5)CC4)cc3OC)nc2N1C(C)C [volasertib]
Outline: as §1

[2] = compound: CC[C@H](C)N1C=C(C2=C(C=C(C=C21)C3=CN=C(C=C3)N4CCNCC4)C(=O)NCC5=C(C=C(NC5=O)C)C)C
Outline: as §1

epoxomicin = compound: CC[C@H](C)[C@@H](C(=O)N[C@@H]([C@@H](C)O)C(=O)N[C@@H](CC(C)C)C(=O)[C@]1(CO1)C)NC(=O)[C@H]([C@@H](C)CC)N(C)C(=O)C [epoxomicin]
Outline: as §1

[3] = compound: CCn1cc(-c2ccnc3[nH]c(-c4cccc(CN(C)C)c4)cc23)c(-c2ccc(NC(=O)N(C)C)cc2)n1
Outline: as §1

[4] = compound: CN(C)CC(=O)Nc1ccc2[nH]c(=O)c3ccccc3c2c1
Outline: as §1

[5] = compound: CN1C2=C(C3=C1C(=O)N(N=C3)CC4=CC(=CC=C4)N)SC(=C2)S(=O)C
Outline: as §1

[6] = compound: CN1CCC(CNc2ccc3ncc(-c4cccc(OC(F)(F)F)c4)n3n2)CC1
Outline: as §1

saracatinib = compound: CN1CCN(CCOc2cc(OC3CCOCC3)c3c(Nc4c(Cl)ccc5c4OCO5)ncnc3c2)CC1 [saracatinib]
Outline: as §1

sotrastaurin = compound: CN1CCN(c2nc(C3=C(c4c[nH]c5ccccc45)C(=O)NC3=O)c3ccccc3n2)CC1 [sotrastaurin]
Outline: as §1

Tubastatin A = compound: CN1CCc2c(c3ccccc3n2Cc2ccc(C(=O)NO)cc2)C1 [Tubastatin A]
Outline: as §1

[7] = compound: CNC(=O)C1=CC=CC=C1NC2=NC(=NC=C2Cl)NC3=C(C=C(C=C3)N4CCOCC4)OC
Outline: as §1

defactinib = compound: CNC(=O)c1ccc(Nc2ncc(C(F)(F)F)c(NCc3nccnc3N(C)S(C)(=O)=O)n2)cc1 [defactinib]
Outline: as §1

rucaparib = compound: CNCc1ccc(-c2[nH]c3cc(F)cc4c3c2CCNC4=O)cc1 [rucaparib]
Outline: as §1

[8] = compound: CNc1nc(-c2ccc3c(N)n[nH]c3c2)cc(N2C[C@@H](C(=O)NC3CCCCC3)CC[C@H]2C)n1
Outline: as §1

encorafenib = compound: COC(=O)N[C@@H](C)CNc1nccc(-c2cn(C(C)C)nc2-c2cc(Cl)cc(NS(C)(=O)=O)c2F)n1 [encorafenib]
Outline: as §1

[9] = compound: COC(=O)[C@H](CCSC)NC(=O)C1=C(C=C(C=C1)NC[C@H](CS)N)C2=CC=CC=C2
Outline: as §1

[10] = compound: CCn1c(C(=O)N(C2CC2)C2CC2)cc2c3c(ncn3C)c(Nc3cc(C)n(C)n3)nc21
Outline: as §1

rosiglitazone = compound: CN(CCOC1=CC=C(C=C1)C[C@H]2C(=O)NC(=O)S2)C3=CC=CC=N3 (racemic) [rosiglitazone]
Outline: as §1

alvocidib = compound: CN1CC[C@H](c2c(O)cc(O)c3c(=O)cc(-c4ccccc4Cl)oc23)[C@H](O)C1 [alvocidib]
Outline: as §1

Row | Target | log2 fold change [1] | log2 fold change (volasertib) | log2 fold change [2] | log2 fold change (epoxomicin) | log2 fold change [3] | log2 fold change [4] | log2 fold change [5] | log2 fold change [6] | log2 fold change (saracatinib) | log2 fold change (sotrastaurin) | log2 fold change (Tubastatin A) | log2 fold change [7] | log2 fold change (defactinib) | log2 fold change (rucaparib) | log2 fold change [8] | log2 fold change (encorafenib) | log2 fold change [9] | log2 fold change [10] | log2 fold change (rosiglitazone) | log2 fold change (alvocidib)
1 | H2AZ1 (UniProt P0C0S5) | inactive: 0 | inactive: 0.065 | inactive: -0.084 | inactive: -0.311 | inactive: 0.103 | inactive: -0.071 | inactive: 0.435 | inactive: 0.026 | inactive: -0.082 | inactive: 0.067 | inactive: -0.017 | inactive: -0.102 | inactive: 0.259 | inactive: 0.396 | inactive: -0.014 | inactive: 0.107 | inactive: 0.105 | – | – | –
2 | GSTO1 (UniProt P78417) | inactive: 0.005 | inactive: 0.08 | inactive: 0.009 | inactive: 0.013 | inactive: -0.052 | inactive: -0.007 | inactive: -0.082 | inactive: 0.084 | inactive: 0.027 | inactive: 0.094 | inactive: -0.021 | inactive: -0.034 | inactive: 0.001 | inactive: -0.09 | inactive: -0.004 | inactive: 0.001 | inactive: 0 | – | – | –
3 | GSTM4 (UniProt Q03013) | inactive: 0.202 | inactive: 0.095 | inactive: 0.039 | inactive: -0.009 | inactive: -0.063 | inactive: 0.025 | inactive: -0.054 | inactive: -0.182 | inactive: -0.106 | inactive: -0.066 | inactive: -0.044 | inactive: 0.003 | inactive: -0.086 | active: -0.385 | inactive: 0.06 | inactive: -0.238 | inactive: 0.093 | – | – | –
4 | GUSB (UniProt P08236) | inactive: -0.104 | inactive: 0.067 | inactive: 0.354 | inactive: -0.053 | inactive: -0.026 | inactive: -0.001 | inactive: -0.028 | inactive: 0.001 | inactive: 0.03 | inactive: -0.004 | inactive: -0.054 | inactive: 0.045 | inactive: -0.055 | inactive: 0.048 | inactive: -0.039 | inactive: 0.128 | inactive: 0.029 | – | – | –
5 | HECTD1 (UniProt Q9ULT8) | inactive: 0.107 | inactive: -0.221 | inactive: 0.063 | inactive: 0.012 | inactive: 0 | inactive: 0.016 | inactive: 0.17 | inactive: -0.054 | inactive: -0.184 | inactive: -0.066 | inactive: 0.071 | inactive: 0.033 | inactive: -0.026 | inactive: 0.056 | inactive: -0.001 | inactive: -0.154 | inactive: -0.018 | – | – | –
6 | HBQ1 (UniProt P09105) | inactive: 0.01 | inactive: -0.014 | inactive: -0.005 | active: 0.375 | inactive: -0.064 | inactive: 0.047 | inactive: -0.145 | inactive: 0.063 | inactive: -0.029 | inactive: 0.007 | inactive: -0.011 | inactive: -0.013 | inactive: -0.009 | inactive: -0.027 | inactive: 0.008 | inactive: -0.007 | inactive: 0.028 | – | – | –
7 | HDAC7 isoform 5 (UniProt Q8WUI4) | inactive: 0.051 | inactive: 0.01 | inactive: 0.007 | inactive: 0.016 | inactive: -0.058 | inactive: 0.059 | inactive: -0.053 | inactive: -0.123 | inactive: -0.04 | inactive: -0.048 | – | inactive: -0.2 | inactive: -0.011 | inactive: -0.033 | inactive: 0 | inactive: -0.016 | inactive: 0.012 | – | – | –
8 | GTF2H3 (UniProt Q13889) | inactive: 0.004 | inactive: -0.122 | inactive: 0.066 | inactive: -0.099 | inactive: 0.115 | inactive: 0.052 | inactive: 0.027 | active: -0.34 | inactive: -0.099 | inactive: -0.079 | inactive: 0.124 | inactive: 0.008 | inactive: 0.009 | inactive: 0.09 | inactive: -0.001 | inactive: -0.073 | inactive: 0.043 | – | – | –
9 | GYG1 (UniProt P46976) | inactive: 0.107 | inactive: 0.338 | inactive: 0 | inactive: -0.104 | inactive: -0.045 | inactive: 0.019 | inactive: 0.016 | inactive: -0.011 | inactive: -0.03 | inactive: -0.425 | inactive: 0.033 | inactive: 0.091 | inactive: -0.042 | inactive: 0.062 | inactive: 0.038 | inactive: 0.083 | inactive: 0.013 | – | – | –
10 | H3-2 (UniProt Q5TEC6) | inactive: 0.073 | inactive: 0.033 | inactive: -0.218 | – | inactive: 0.15 | inactive: -0.436 | – | inactive: -0.155 | – | inactive: 0.265 | – | inactive: -0.072 | inactive: 0.038 | inactive: 0.203 | – | inactive: -0.132 | inactive: 0.068 | inactive: -0.007 | inactive: -0.052 | –
11 | HDHD2 (UniProt Q9H0R4) | inactive: 0.011 | inactive: 0.049 | inactive: -0.007 | inactive: 0.073 | inactive: -0.063 | inactive: 0.053 | inactive: -0.058 | inactive: -0.096 | inactive: -0.004 | inactive: -0.077 | inactive: -0.016 | inactive: -0.017 | inactive: 0 | inactive: -0.049 | inactive: -0.048 | inactive: 0.016 | inactive: -0.018 | – | – | –
12 | GTF3C5 isoform 3 (UniProt Q9Y5Q8) | inactive: -0.188 | inactive: -0.157 | inactive: 0.213 | inactive: -0.011 | inactive: -0.034 | inactive: 0.078 | inactive: -0.025 | inactive: 0.03 | inactive: 0.024 | inactive: -0.148 | inactive: 0.068 | inactive: -0.02 | inactive: -0.069 | inactive: -0.173 | inactive: 0.056 | inactive: 0.085 | inactive: -0.021 | – | – | –
13 | HADHA (UniProt P40939) | inactive: 0.03 | inactive: 0.469 | inactive: 0.107 | inactive: 0.055 | inactive: -0.233 | inactive: 0.023 | inactive: -0.053 | inactive: -0.334 | inactive: -0.102 | inactive: 0.032 | inactive: 0.05 | inactive: 0.044 | inactive: -0.19 | inactive: 0.177 | active: 0.595 | inactive: -0.024 | inactive: -0.191 | – | – | –
14 | GTF3C3 (UniProt Q9Y5Q9) | inactive: 0.038 | inactive: 0.125 | inactive: 0.062 | – | inactive: -0.126 | – | inactive: -0.281 | inactive: 0.07 | inactive: 0.105 | – | inactive: 0.073 | inactive: -0.008 | – | inactive: 0.021 | inactive: -0.157 | inactive: 0.032 | – | inactive: 0.081 | inactive: 0.007 | –
15 | GTF3C4 (UniProt Q9UKN8) | inactive: -0.002 | active: -0.263 | inactive: 0.001 | inactive: -0.001 | inactive: -0.003 | inactive: -0.024 | inactive: 0.007 | inactive: 0 | inactive: 0.06 | inactive: 0.021 | inactive: -0.009 | inactive: -0.005 | inactive: -0.081 | inactive: 0.029 | inactive: -0.001 | inactive: 0.043 | inactive: -0.01 | – | – | –
16 | HDGFL2 (UniProt Q7Z4V5) | inactive: -0.019 | inactive: 0.014 | inactive: -0.043 | inactive: 0.012 | inactive: 0.015 | inactive: -0.011 | inactive: 0.006 | inactive: -0.033 | inactive: 0.01 | inactive: 0.119 | inactive: 0.013 | inactive: -0.061 | inactive: -0.07 | inactive: -0.051 | inactive: -0.058 | inactive: -0.016 | inactive: 0.036 | – | – | –
17 | HAT1 (UniProt O14929) | inactive: -0.185 | active: -0.313 | inactive: 0.02 | inactive: 0.035 | inactive: -0.057 | inactive: -0.007 | inactive: -0.081 | inactive: 0.026 | inactive: 0.047 | inactive: -0.058 | inactive: 0.036 | inactive: 0.05 | inactive: -0.139 | inactive: -0.066 | inactive: -0.061 | inactive: 0.064 | inactive: -0.017 | – | – | –
18 | HBZ (UniProt P02008) | inactive: 0.03 | inactive: -0.065 | inactive: -0.026 | active: 0.288 | inactive: -0.021 | inactive: 0.019 | inactive: -0.012 | inactive: 0.016 | inactive: 0.022 | inactive: 0.03 | inactive: 0 | inactive: -0.041 | inactive: 0.011 | inactive: -0.026 | inactive: -0.006 | inactive: -0.004 | inactive: -0.025 | – | – | –
19 | GTPBP4 (UniProt Q9BZE4) | inactive: 0.102 | – | inactive: -0.133 | inactive: -0.329 | inactive: -0.04 | inactive: -0.06 | inactive: 0.472 | inactive: 0.289 | inactive: -0.135 | inactive: -0.042 | inactive: 0.018 | – | inactive: 0.01 | inactive: 0.357 | inactive: -0.01 | inactive: 0.208 | inactive: 0.064 | – | inactive: -0.145 | inactive: 0.273
20 | HBZ, A0A494C057 | inactive: 0.203 | – | inactive: -0.079 | – | – | – | – | – | – | – | – | inactive: 0.005 | – | inactive: -0.058 | – | inactive: -0.094 | – | – | – | –

Part of the list above, tab-delimited.
Row	Target	log2 fold change [1]	log2 fold change (volasertib)	log2 fold change [2]	log2 fold change (epoxomicin)	log2 fold change [3]	log2 fold change [4]	log2 fold change [5]	log2 fold change [6]	log2 fold change (saracatinib)	log2 fold change (sotrastaurin)	log2 fold change (Tubastatin A)	log2 fold change [7]	log2 fold change (defactinib)	log2 fold change (rucaparib)	log2 fold change [8]	log2 fold change (encorafenib)	log2 fold change [9]	log2 fold change [10]	log2 fold change (rosiglitazone)	log2 fold change (alvocidib)
3	GSTM4 (UniProt Q03013)	inactive: 0.202	inactive: 0.095	inactive: 0.039	inactive: -0.009	inactive: -0.063	inactive: 0.025	inactive: -0.054	inactive: -0.182	inactive: -0.106	inactive: -0.066	inactive: -0.044	inactive: 0.003	inactive: -0.086	active: -0.385	inactive: 0.06	inactive: -0.238	inactive: 0.093	–	–	–
10	H3-2 (UniProt Q5TEC6)	inactive: 0.073	inactive: 0.033	inactive: -0.218	–	inactive: 0.15	inactive: -0.436	–	inactive: -0.155	–	inactive: 0.265	–	inactive: -0.072	inactive: 0.038	inactive: 0.203	–	inactive: -0.132	inactive: 0.068	inactive: -0.007	inactive: -0.052	–
15	GTF3C4 (UniProt Q9UKN8)	inactive: -0.002	active: -0.263	inactive: 0.001	inactive: -0.001	inactive: -0.003	inactive: -0.024	inactive: 0.007	inactive: 0	inactive: 0.06	inactive: 0.021	inactive: -0.009	inactive: -0.005	inactive: -0.081	inactive: 0.029	inactive: -0.001	inactive: 0.043	inactive: -0.01	–	–	–
16	HDGFL2 (UniProt Q7Z4V5)	inactive: -0.019	inactive: 0.014	inactive: -0.043	inactive: 0.012	inactive: 0.015	inactive: -0.011	inactive: 0.006	inactive: -0.033	inactive: 0.01	inactive: 0.119	inactive: 0.013	inactive: -0.061	inactive: -0.07	inactive: -0.051	inactive: -0.058	inactive: -0.016	inactive: 0.036	–	–	–
